The source of these data is publication PMC7914255.

Assay [1] has as its target T1, GST-TRIM41 (mouse) (UniProt Q5NCC3).
T1 sequence: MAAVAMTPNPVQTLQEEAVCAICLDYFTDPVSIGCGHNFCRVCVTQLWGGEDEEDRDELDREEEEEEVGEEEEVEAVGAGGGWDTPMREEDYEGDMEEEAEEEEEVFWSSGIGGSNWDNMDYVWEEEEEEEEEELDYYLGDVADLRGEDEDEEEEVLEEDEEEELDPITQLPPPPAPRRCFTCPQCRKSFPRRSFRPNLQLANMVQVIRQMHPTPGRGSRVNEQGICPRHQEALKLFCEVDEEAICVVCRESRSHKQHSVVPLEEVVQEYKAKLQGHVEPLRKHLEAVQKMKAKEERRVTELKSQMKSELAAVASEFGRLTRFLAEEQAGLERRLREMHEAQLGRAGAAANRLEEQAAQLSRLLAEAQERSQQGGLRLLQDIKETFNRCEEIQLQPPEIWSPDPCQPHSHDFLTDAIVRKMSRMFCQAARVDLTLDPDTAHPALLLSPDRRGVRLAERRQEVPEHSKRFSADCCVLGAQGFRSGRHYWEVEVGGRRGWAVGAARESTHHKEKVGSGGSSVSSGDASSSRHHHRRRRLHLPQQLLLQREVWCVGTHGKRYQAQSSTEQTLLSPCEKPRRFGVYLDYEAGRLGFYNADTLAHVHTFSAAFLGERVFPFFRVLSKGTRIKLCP
As to the kind of experiment: condition: 1 μg GST-TRIM41 with 1 μg recombinant CARD9; pull-down; 1 μg GST or GST-TRIM41 coincubated with 1 μg recombinant CARD9, CARD11 or BCL10 for 1 h; sepharose 4B beads; Western blotting; both purified.

For assay [2], the target named is T2, MAVS (endogenous, BMDM) (mouse (endogenous in BMDM)) (UniProt Q8VCF0).
T2 sequence: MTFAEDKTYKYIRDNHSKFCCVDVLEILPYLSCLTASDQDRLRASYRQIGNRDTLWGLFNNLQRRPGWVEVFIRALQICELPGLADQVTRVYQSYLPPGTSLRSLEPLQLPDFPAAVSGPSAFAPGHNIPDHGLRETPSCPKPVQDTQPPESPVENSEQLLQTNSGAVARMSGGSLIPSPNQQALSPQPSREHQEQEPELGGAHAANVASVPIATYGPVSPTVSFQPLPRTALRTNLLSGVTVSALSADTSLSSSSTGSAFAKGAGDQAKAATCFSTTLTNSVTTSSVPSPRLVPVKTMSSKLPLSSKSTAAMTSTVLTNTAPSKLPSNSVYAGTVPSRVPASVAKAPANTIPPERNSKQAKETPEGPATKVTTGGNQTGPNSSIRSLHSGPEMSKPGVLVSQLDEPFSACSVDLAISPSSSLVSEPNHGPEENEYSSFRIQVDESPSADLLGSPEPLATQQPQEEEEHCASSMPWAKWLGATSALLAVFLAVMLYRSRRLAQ
The experiment in a line: co-IP.

Assay [3] concerns the target T3, TRIM41 (endogenous, BMDM) (mouse (endogenous in BMDM)) (UniProt Q5NCC3).
T3 sequence: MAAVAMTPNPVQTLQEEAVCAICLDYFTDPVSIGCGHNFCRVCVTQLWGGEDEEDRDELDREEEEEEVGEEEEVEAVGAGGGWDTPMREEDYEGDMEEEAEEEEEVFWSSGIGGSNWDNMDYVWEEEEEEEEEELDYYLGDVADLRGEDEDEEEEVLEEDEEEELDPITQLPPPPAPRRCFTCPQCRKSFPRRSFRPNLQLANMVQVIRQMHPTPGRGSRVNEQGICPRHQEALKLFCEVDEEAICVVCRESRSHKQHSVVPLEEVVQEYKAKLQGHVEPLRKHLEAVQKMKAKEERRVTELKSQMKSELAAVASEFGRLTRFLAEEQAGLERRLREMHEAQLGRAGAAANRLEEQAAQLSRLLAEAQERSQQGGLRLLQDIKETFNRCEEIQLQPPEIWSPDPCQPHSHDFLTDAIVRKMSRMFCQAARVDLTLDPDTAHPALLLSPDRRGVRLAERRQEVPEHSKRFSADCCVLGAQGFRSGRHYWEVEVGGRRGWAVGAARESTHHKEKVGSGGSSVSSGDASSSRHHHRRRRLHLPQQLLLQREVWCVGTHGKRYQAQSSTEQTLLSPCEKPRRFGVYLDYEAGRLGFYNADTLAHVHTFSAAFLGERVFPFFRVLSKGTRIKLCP
As to the kind of experiment: co-IP.

Assay [4] has as its target T4, STING (endogenous, BMDM) (mouse (endogenous in BMDM)) (UniProt Q3TBT3).
T4 sequence: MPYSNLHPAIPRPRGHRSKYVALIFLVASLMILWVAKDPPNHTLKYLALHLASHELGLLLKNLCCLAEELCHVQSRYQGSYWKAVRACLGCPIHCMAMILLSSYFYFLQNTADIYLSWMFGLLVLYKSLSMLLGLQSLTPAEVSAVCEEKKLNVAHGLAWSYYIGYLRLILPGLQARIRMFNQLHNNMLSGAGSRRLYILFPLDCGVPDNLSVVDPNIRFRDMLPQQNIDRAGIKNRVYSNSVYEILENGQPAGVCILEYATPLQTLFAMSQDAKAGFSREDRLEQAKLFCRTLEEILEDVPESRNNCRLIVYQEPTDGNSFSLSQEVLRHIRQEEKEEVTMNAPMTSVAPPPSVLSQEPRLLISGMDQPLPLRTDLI
The experiment in a line: co-IP.

The target of assay [5] is T5, Flag-tagged TRIM41 (full length) (mouse) (UniProt Q5NCC3).
T5 sequence: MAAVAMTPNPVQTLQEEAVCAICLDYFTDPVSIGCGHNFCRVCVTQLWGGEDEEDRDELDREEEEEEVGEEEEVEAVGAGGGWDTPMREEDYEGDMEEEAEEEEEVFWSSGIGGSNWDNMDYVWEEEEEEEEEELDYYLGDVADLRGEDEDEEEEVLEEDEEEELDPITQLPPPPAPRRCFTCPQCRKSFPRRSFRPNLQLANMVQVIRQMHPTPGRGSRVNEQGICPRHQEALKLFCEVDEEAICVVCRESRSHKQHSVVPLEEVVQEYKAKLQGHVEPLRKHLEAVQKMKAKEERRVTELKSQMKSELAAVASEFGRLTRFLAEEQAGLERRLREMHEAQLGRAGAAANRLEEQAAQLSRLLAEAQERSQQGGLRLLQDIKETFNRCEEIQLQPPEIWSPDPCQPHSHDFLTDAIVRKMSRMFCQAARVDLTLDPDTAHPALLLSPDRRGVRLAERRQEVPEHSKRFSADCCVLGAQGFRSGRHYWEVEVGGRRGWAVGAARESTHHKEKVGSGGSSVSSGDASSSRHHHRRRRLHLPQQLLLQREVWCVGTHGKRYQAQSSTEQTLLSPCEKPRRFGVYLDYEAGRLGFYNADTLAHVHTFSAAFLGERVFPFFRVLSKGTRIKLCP
As to the kind of experiment: co-IP; HEK293T transiently transfected with Flag-tagged TRIM41 (or mutants) and Myc-tagged BCL10 (or mutants) for 48 h; whole cell extracts immunoprecipitated with anti-Flag or anti-Myc Sepharose Beads; Western blotting.

The target of assay [6] is T1, GST-TRIM41 (mouse). The experiment in a line: pull-down; 1 μg GST or GST-TRIM41 coincubated with 1 μg recombinant CARD9, CARD11 or BCL10 for 1 h; sepharose 4B beads; Western blotting; both purified.

No constants are given. Whether binding was seen depends on the method and setting. For some of these results: Binding seen in cells or lysates may run through a third protein. Some binding calls cover weakened binding; strength is not graded here. For some of these results: Tags and fused reporters may be left off the sequences shown.

B1: Recombinant CARD9 (Abcam ab131800) (protein, UniProt Q9H257 1-536)
chain: MSDYENDDECWSVLEGFRVTLTSVIDPSRITPYLRQCKVLNPDDEEQVLSDPNLVIRKRKVGVLLDILQRTGHKGYVAFLESLELYYPQLYKKVTGKEPARVFSMIIDASGESGLTQLLMTEVMKLQKKVQDLTALLSSKDDFIKELRVKDSLLRKHQERVQRLKEECEAGSRELKRCKEENYDLAMRLAHQSEEKGAALMRNRDLQLEIDQLKHSLMKAEDDCKVERKHTLKLRHAMEQRPSQELLWELQQEKALLQARVQELEASVQEGKLDRSSPYIQVLEEDWRQALRDHQEQANTIFSLRKDLRQGEARRLRCMEEKEMFELQCLALRKDSKMYKDRIEAILLQMEEVAIERDQAIATREELHAQHARGLQEKDALRKQVRELGEKADELQLQVFQCEAQLLAVEGRLRRQQLETLVLSSDLEDGSPRRSQELSLPQDLEDTQLSDKGCLAGGGSPKQPFAALHQEQVLRNPHDAGLSSGEPPEKERRRLKESFENYRRKRALRKMQKGWRQGEEDRENTTGSDNTDTEGS
Turning to B1, the binding result in the assay with GST-TRIM41 (mouse) [1] is “no binding”.

B2: BCL10 (B cell lymphoma 10; endogenous, BMDM) (protein, UniProt Q9Z0H7 1-233)
chain: MEAPAPSLTEEDLTEVKKDALENLRVYLCEKIIAERHFDHLRAKKILSREDTEEISCRTSSRKRAGKLLDYLQENPRGLDTLVESIRREKTQSFLIQKITDEVLKLRNIKLEHLKGLKCSSCEPFAAGATNNLSRCNSDESNLSEKQRASTVMYHPEGESSTAPFFSMASSLNLPVLEVGRTENSSFSSATLPRPGDPGAPPLPPDLRLEEGGSCGNSSEMFLPLRSRALSRQ
With B2, the binding result in assay [2], in assay [3] and in assay [4] was “binds” throughout.

B3: Myc-tagged BCL10 (full length) (protein, UniProt Q9Z0H7 1-233)
chain: MEAPAPSLTEEDLTEVKKDALENLRVYLCEKIIAERHFDHLRAKKILSREDTEEISCRTSSRKRAGKLLDYLQENPRGLDTLVESIRREKTQSFLIQKITDEVLKLRNIKLEHLKGLKCSSCEPFAAGATNNLSRCNSDESNLSEKQRASTVMYHPEGESSTAPFFSMASSLNLPVLEVGRTENSSFSSATLPRPGDPGAPPLPPDLRLEEGGSCGNSSEMFLPLRSRALSRQ
Regarding B3, the binding entry in assay [5] is “binds”.

B4: CARD11 (endogenous, BMDM) (protein, UniProt Q8CIS0 1-1159)
chain: MPGGGPAMDDYMETLKDEEEALWDNVECNRHMLSRYINPAKLTPYLRQCKVIDEQDEDEVLNAPMLPSKINRAGRLLDILHTKGQRGYVVFLESLEFYYPELYKLVTGKEPTRRFSTIVVEEGHEGLTHFLMNEVIKLQQQVKAKDLQRCELLAKSRQLEDEKKQLSLIRVELLTFQERYYKMKEERDSYNDELVKVKDDNYNLAMRYAQLSEEKNMAVMRSRDLQLEIDQLKHRLNKMEEECKLERNQSLKLKNDIENRPRKEQVLELERENEMLKTKIQELQSIIQAGKRSLPDSDKAILDILEHDRKEALEDRQELVNKIYNLQEEVRQAEELRDKYLEEKEDLELKCSTLGKDCEMYKHRMNTVMLQLEEVERERDQAFHSRDEAQTQYSQCLIEKDKYRKQIRELEEKNDEMRIEMVRREACIVNLESKLRRLSKDNGSLDQSLPRHLPATIISQNLGDTSPRTNGQEADDSSTSEESPEDSKYFLPYHPPRRRMNLKGIQLQRAKSPISMKQASEFQALMRTVKGHEEDFTDGSPSSSRSLPVTSSFSKMQPHRSRSSIMSITAEPPGNDSIVRRCKEDAPHRSTVEEDNDSCGFDALDLDDENHERYSFGPPSIHSSSSSHQSEGLDAYDLEQVNLMLRKFSLERPFRPSVTSGGHVRGTGPLVQHTTLNGDGLITQLTLLGGNARGSFIHSVKPGSLAERAGLREGHQLLLLEGCIRGERQSVPLDACTKEEARWTIQRCSGLITLHYKVNHEGYRKLLKEMEDGLITSGDSFYIRLNLNISSQLDACSMSLKCDDVVHVLDTMYQDRHEWLCARVDPFTDQDLDTGTIPSYSRAQQLLLVKLQRLVHRGNREEADSAHHTLRSLRNTLQPEEMLSTSDPRVSPRLSRASFFFGQLLQFVSRSENKYKRMNSNERVRIISGSPLGSLSRSSLDATKLLTEKHEELDPENELSRNLTLIPYSLVRAFHCERRRPVLFTPTMLAKTLVQKLLNSGGAMEFTICKSDIVTRDEFLRKQKTETIIYSREKNPNTFECIVPANIEAVAAKNKHCLLEAGIGCVRDLIKCKVYPIVLLIRVSEKNIKRFRKLLPRPETEEEFLRVCRLKEKELEALPCLYATVEAEMWSSVEELLRVLKDKIVEEQRKTIWVDEDQL
On to B4, for which the binding result in assay [2] and in assay [4] was “binds” each time.

B5: CARD9 (endogenous, BMDM) (protein, UniProt A2AIV8 1-536)
chain: MSDYENDDECWSTLESFRVKLISVIDPSRITPYLRQCKVLNPDDEEQVLSDPNLVIRKRKVGVLLDILQRTGHKGYVAFLESLELYYPQLYRKVTGKEPARVFSMIIDASGESGLTQLLMTEVMKLQKKVQDLTALLSSKDDFIKELRVKDSLLRKHQERVQRLKEECELSSAELKRCKDENYELAMCLAHLSEEKGAALMRNRDLQLEVDRLRHSLMKAEDDCKVERKHTLKLRHAMEQRPSQELLWELQQEKDLLQARVQELQVSVQEGKLDRNSPYIQVLEEDWRQALQEHQKQVSTIFSLRKDLRQAETLRARCTEEKEMFELQCLALRKDAKMYKDRIEAILLQMEEVSIERDQAMASREELHAQCTQSFQDKDKLRKLVRELGEKADELQLQLFQTESRLLAAEGRLKQQQLDMLILSSDLEDSSPRNSQELSLPQDLEEDAQLSDKGVLADRESPEQPFMALNKEHLSLTHGMGPSSSEPPEKERRRLKESFENYRRKRALRKMQNSWRQGEGDRGNTTGSDNTDTEGS
Consider B5, for which the binding entry in assay [2] and in assay [4] was “binds” in each case.

B6: Recombinant BCL10 (Abcam ab82241) (protein, UniProt O95999 1-233)
chain: MEPTAPSLTEEDLTEVKKDALENLRVYLCEKIIAERHFDHLRAKKILSREDTEEISCRTSSRKRAGKLLDYLQENPKGLDTLVESIRREKTQNFLIQKITDEVLKLRNIKLEHLKGLKCSSCEPFPDGATNNLSRSNSDESNFSEKLRASTVMYHPEGESSTTPFFSTNSSLNLPVLEVGRTENTIFSSTTLPRPGDPGAPPLPPDLQLEEEGTCANSSEMFLPLRSRTVSRQ
Consider B6, for which, in the assay with GST-TRIM41 (mouse) [6], the binding result is listed as “binds”.
